PubChem BioAssay AID1224829, NIAID | 2016

- Test: 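Follow-up of TLR4-NF-kappaB regulators using six separate siRNAs for each gene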 (follow-up of hits)
- Cell system: mouse RAW264.7 G9 macrophage reporter cells
- Reagents: single siRNA against mouse genes, 100 nM
- Time to read-out: 2 days of siRNA knock-down, then 40 min of LPS before fixing
- Conditions: LPS (Salmonella minnesota R595) at 10 ng/ml
- Measured: 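High-content images after 40 min LPS exposure; GFP-p65 nucleus to surrounding ring signal ratio, normalised to plate median and non-targeting control wells, expressed as z-score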
- Direction: p65 translocation z-score and gene median z-score, per vendor: higher = more nuclear NF-kappaB p65 after LPS
- Active means: 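An siRNA is called active when the mean z-score of its two replicates is above 2 or below -2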
- Meaning of the calls: active = changed p65 translocation (either direction); inactive = no clear change
In all, the deposit lists about 3,800 reagents; shown is an unselected part. 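Calls cover raised and lowered translocation; gene median uses one vendor's three siRNAs; qiagen siRNAs acted more weakly than ambion siRNAs.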 Unmarked entries are inactive. Reagents against one gene are numbered here.

gene	siRNA no.	siRNA vendor or control pool	p65 translocation z-score, replicate mean	p65 translocation z-score, replicate 1	p65 translocation z-score, replicate 2	gene median z-score, per vendor
Rbmx	1	ambion single siRNA	0.112	0.826	-0.602	-1.61
Rbmx	2	ambion single siRNA	-1.98	-0.496	-3.47	-1.61
Rbmx	3	ambion single siRNA	-2.92 (active)	-3.21	-2.63	-1.61
Fat4	1	ambion single siRNA	0.214	0.637	-0.208	-2.68
Fat4	2	ambion single siRNA	-2.68 (active)	-3.54	-1.81	-2.68
Fat4	3	ambion single siRNA	-5.01 (active)	-4.59	-5.43	-2.68
Fat4	4	qiagen single siRNA	0.952	0.422	1.48	0.939
Fat4	5	qiagen single siRNA	1.61	1.46	1.76	0.939
Fat4	6	qiagen single siRNA	0.16	-0.0964	0.416	0.939
Hdac7	1	ambion single siRNA	0.749	0.86	0.638	0.638
Hdac7	2	ambion single siRNA	-1.18	-1.8	-0.556	0.638
Hdac7	3	ambion single siRNA	0.677	0.677		0.638
Hdac7	4	qiagen single siRNA	1.1	-0.166	2.36	-1.54
Hdac7	5	qiagen single siRNA	-2.08 (active)	-2.08	-2.07	-1.54
Hdac7	6	qiagen single siRNA	-2.01 (active)	-1.01	-3.01	-1.54
Akt1s1	1	ambion single siRNA	-0.0357	0.0251	-0.0965	-1.97
Akt1s1	2	ambion single siRNA	-3.78 (active)	-3.95	-3.6	-1.97
Akt1s1	3	ambion single siRNA	-1.97	-1.97		-1.97
Akt1s1	4	qiagen single siRNA	-0.342	-0.36	-0.325	0.82
Akt1s1	5	qiagen single siRNA	2.81 (active)	2.77	2.84	0.82
Akt1s1	6	qiagen single siRNA	0.82	0.997	0.642	0.82
Card6	1	qiagen single siRNA	0.409	-0.0258	0.844	-0.581
Card6	2	qiagen single siRNA	-0.581	-0.376	-0.786	-0.581
Card6	3	qiagen single siRNA	-3.11 (active)	-2.09	-4.13	-0.581

Next part; the last 3 above are carried over.
gene	siRNA no.	siRNA vendor or control pool	p65 translocation z-score, replicate mean	p65 translocation z-score, replicate 1	p65 translocation z-score, replicate 2	gene median z-score, per vendor
Card6	1	qiagen single siRNA	0.409	-0.0258	0.844	-0.581
Card6	2	qiagen single siRNA	-0.581	-0.376	-0.786	-0.581
Card6	3	qiagen single siRNA	-3.11 (active)	-2.09	-4.13	-0.581
Dnajc27	1	ambion single siRNA	-2.53 (active)	-2.5	-2.56	-2.59
Dnajc27	2	ambion single siRNA	-2.12 (active)	-2.61	-1.64	-2.59
Dnajc27	3	ambion single siRNA	-4.06 (active)	-4.06	-4.06	-2.59
Dnajc27	4	qiagen single siRNA	1.08	0.135	2.02	-0.0829
Dnajc27	5	qiagen single siRNA	-0.0829	-0.0574	-0.108	-0.0829
Dnajc27	6	qiagen single siRNA	-2.86 (active)	-2.54	-3.18	-0.0829
Ssb	1	ambion single siRNA	-0.817	-1.14	-0.494	-2.43
Ssb	2	ambion single siRNA	-3.61 (active)	-4.94	-2.28	-2.43
Ssb	3	ambion single siRNA	-3.07 (active)	-3.55	-2.58	-2.43
Ssb	4	qiagen single siRNA	1.11	1.83	0.397	0.321
Ssb	5	qiagen single siRNA	0.153	-0.014	0.321	0.321
Ssb	6	qiagen single siRNA	-2	-2		0.321
Crebl2	1	ambion single siRNA	-2.27 (active)	-2.68	-1.86	-2.27
Crebl2	2	ambion single siRNA	-1.78	-1.78	-1.77	-2.27
Crebl2	3	ambion single siRNA	-3.53 (active)	-4.13	-2.94	-2.27
Crebl2	4	qiagen single siRNA	2.82 (active)	2.66	2.97	-0.115
Crebl2	5	qiagen single siRNA	-0.115	0.0277	-0.258	-0.115
Crebl2	6	qiagen single siRNA	-0.569	-0.432	-0.706	-0.115
Angel2	1	ambion single siRNA	-3.44 (active)	-4.73	-2.16	-3.09
Angel2	2	ambion single siRNA	-2.58 (active)	-2.58		-3.09
Angel2	3	ambion single siRNA	-3.6 (active)	-3.6		-3.09
Angel2	4	qiagen single siRNA	1.64	-0.239	3.51	-0.239
Angel2	5	qiagen single siRNA	-0.241	-1.26	0.776	-0.239
Angel2	6	qiagen single siRNA	-2.57 (active)	-2.57		-0.239
Nxnl1	1	ambion single siRNA	-3.11 (active)	-2.47	-3.74	-2.28
Nxnl1	2	ambion single siRNA	-0.833	0.431	-2.1	-2.28
Nxnl1	3	ambion single siRNA	-2.1 (active)	-2.56	-1.65	-2.28
Nxnl1	4	qiagen single siRNA	0.983	1.14	0.828	-1.71
Nxnl1	5	qiagen single siRNA	-1.71	-1.5	-1.92	-1.71
Nxnl1	6	qiagen single siRNA	-3.15 (active)	-2.69	-3.6	-1.71
